The values that follow come from paper PMC10450186.

Chains of the proteins cited; added tags and fusions are not shown. A line that says so, or that is headed by a name, gives the form on record, which may keep a tag or linker.
pRPA (in vitro phosphorylated RPA) (human), one chain, as listed by the source, chain 2 of 3: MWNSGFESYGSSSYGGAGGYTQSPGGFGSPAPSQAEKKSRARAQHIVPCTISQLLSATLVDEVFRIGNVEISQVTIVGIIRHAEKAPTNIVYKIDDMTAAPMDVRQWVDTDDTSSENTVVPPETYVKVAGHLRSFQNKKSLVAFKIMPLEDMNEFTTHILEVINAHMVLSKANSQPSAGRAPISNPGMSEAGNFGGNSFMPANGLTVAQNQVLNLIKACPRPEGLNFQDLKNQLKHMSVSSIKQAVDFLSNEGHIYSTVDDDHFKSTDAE
pmRPA-S4/8D&S33D S4D,S8D,S33D,RPA32 (human), one chain, as listed by the source S33D S33D, chain 2 of 3: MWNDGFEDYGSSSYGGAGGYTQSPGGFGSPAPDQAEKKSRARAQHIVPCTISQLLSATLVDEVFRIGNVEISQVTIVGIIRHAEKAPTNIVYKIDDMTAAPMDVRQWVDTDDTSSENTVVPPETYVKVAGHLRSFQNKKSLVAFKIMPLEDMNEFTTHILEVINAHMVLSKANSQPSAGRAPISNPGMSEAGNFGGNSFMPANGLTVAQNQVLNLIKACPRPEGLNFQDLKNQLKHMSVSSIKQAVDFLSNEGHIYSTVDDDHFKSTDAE

For at least one entry, the source does not settle the construct or the ends of the probe. For part of these data: No signal at the amounts used counts as a negative. For part of these data: Where a protein sequence is shown, tags need not be part of it. For part of these data: Weaker means in comparison with the reference protein, sequence or condition of that experiment. For part of these data: At least one verdict rests on a figure or table, not on a statement of the authors.

One data set addresses T1, NSMF WT (UniProt Q6X4W1).
T1 sequence (looked up, limits assumed): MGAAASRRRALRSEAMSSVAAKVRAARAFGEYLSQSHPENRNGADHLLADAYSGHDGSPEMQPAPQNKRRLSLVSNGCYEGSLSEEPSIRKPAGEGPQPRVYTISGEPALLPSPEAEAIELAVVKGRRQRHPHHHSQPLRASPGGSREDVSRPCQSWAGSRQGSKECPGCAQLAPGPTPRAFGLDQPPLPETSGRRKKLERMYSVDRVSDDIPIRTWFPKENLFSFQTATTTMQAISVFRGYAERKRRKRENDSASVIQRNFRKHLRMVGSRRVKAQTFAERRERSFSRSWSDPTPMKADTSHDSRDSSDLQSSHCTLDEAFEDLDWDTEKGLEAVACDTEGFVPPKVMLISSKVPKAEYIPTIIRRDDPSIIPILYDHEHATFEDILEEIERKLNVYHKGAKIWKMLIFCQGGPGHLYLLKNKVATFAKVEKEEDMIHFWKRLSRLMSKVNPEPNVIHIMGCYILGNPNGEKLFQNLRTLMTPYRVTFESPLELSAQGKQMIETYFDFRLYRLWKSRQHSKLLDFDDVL
Description: EMSA. To be noted: up to 3000 nM NSMF, EMSA: 50 mM Tris-HCl pH 7.5, 50 mM NaCl, 1 mM DTT, 0.01% Tween-20, 23°C, 10 nM labeled DNA, NSMF-DNA gels 1.5% agarose in 1xTBE at 4°C, recombinant protein.

The subject of data set [1] is pmRPA-S4/8D&S33D S4D,S8D,S33D,RPA32 (human). Description: EMSA. To be noted: EMSA: 50 mM Tris-HCl pH 7.5, 50 mM NaCl, 1 mM DTT, 0.01% Tween-20, 23°C, 10 nM labeled DNA; NSMF-DNA gels 1.5% agarose in 1xTBE at 4°C; recombinant protein; protein details: 7xHis; label: 5' Cy5; single-stranded DNA. (In general: Mobility shift assays separate free from complexed probe on a gel.)

Data set [2] relates to pRPA (in vitro phosphorylated RPA) (human). Nature of the data set: EMSA. To be noted: EMSA: 50 mM Tris-HCl pH 7.5, 50 mM NaCl, 1 mM DTT, 0.01% Tween-20, 23°C, 10 nM labeled DNA, NSMF-DNA gels 1.5% agarose in 1xTBE at 4°C, recombinant protein, protein details: 7xHis, label: 5' Cy5, single-stranded DNA.
Data set [3] has as its system RPA heterotrimer WT (RPA70/RPA32/RPA14) (human). Nature of the data set: EMSA. The note with it: EMSA: 50 mM Tris-HCl pH 7.5, 50 mM NaCl, 1 mM DTT, 0.01% Tween-20, 23°C, 10 nM labeled DNA, NSMF-DNA gels 1.5% agarose in 1xTBE at 4°C, recombinant protein, protein details: untagged, 7xHis version also made, label: 5' Cy5, single-stranded DNA.
Data set [4] concerns RPA-eGFP heterotrimer (human). Nature of the data set: single-molecule photobleaching. The note with it: +NSMF, recombinant protein, protein details: 6xHis, eGFP at C-term of RPA70, label: 5' biotin, single-stranded DNA.
Data set [5] relates to pmRPA-S33D S33D,RPA32 (human). Nature of the data set: EMSA. The note with it: EMSA: 50 mM Tris-HCl pH 7.5, 50 mM NaCl, 1 mM DTT, 0.01% Tween-20, 23°C, 10 nM labeled DNA; NSMF-DNA gels 1.5% agarose in 1xTBE at 4°C; recombinant protein; protein details: 7xHis; label: 5' Cy5; single-stranded DNA.
The subject of data set [6] is RPA-eGFP heterotrimer (human). Description: single-molecule fluorescence. To be noted: recombinant protein, protein details: 6xHis, eGFP at C-term of RPA70, label: 5' biotin, single-stranded DNA.
Data set [7] relates to DBM-RPA W107A,F135A,RPA32 (human). Nature of the data set: EMSA. To be noted: +NSMF, free DNA reappears; EMSA: 50 mM Tris-HCl pH 7.5, 50 mM NaCl, 1 mM DTT, 0.01% Tween-20, 23°C, 10 nM labeled DNA; NSMF-DNA gels 1.5% agarose in 1xTBE at 4°C; recombinant protein; label: 5' Cy5; single-stranded DNA.

On to “CTCGAGGATGTATATATCTGACACGTGCCTGGAGACTAGGGAGTAATCCCCTTGGCGGTTAAAACGCGGGGGACAGCGCGTACGTGCGTTTAAGCGGTGCTAGAGCTGTCTACGACCAATTGAGCGGCCTCGGCACCGGGATTCT / AGAATCCCGGTGCCGAGGCCGCTCAATTGGTCGTAGACA / GCCAAGGGGATTACTCCCTAGTCTCCAGGCACGTGTCAGATATATACATC [ssDNA gap]”, for which the binding result with NSMF WT (label: Cy5 per Fig S3 legend, position not given) is listed as “no binding”.
Regarding “GCCAGGGACGAGGTGAACCTGCAGGTGGGCAAAGCAGCTGGCACGACAGGTATGAATCGCGTGGTAGAATTCGGCAGCGTCATGCGACGGC (double strand) [Homoduplex]”, in the data set with NSMF WT (label: 5' Cy5 on strand 1), the binding result is given as “no binding”.
With “GCCAGGGACGAGGTGAACCTGCAGGTGGGCGGCTACTACTTAGATGTCATCCGAGGCTTATTGGTAGAATTCGGCAGCGTCATGCGACGGC / GCCGTCGCATGACGCTGCCGAATTCTACCACGCGATTCATACCTGTCGTGCCAGCTGCTTTGCCCACCTGCAGGTTCACCTCGTCCCTGGC / GCAGCTGGCACGACAGGTATGAATC [D-loop]”, the binding result in the data set with NSMF WT (label: Cy3 on Oligo1, Cy5 on D-loop oligo) is reported as “no binding”.
As to “GCCAGGGACGAGGTGAACCTGCAGGTGGGCGGCTACTACTTAGATGTCATCCGAGGCTTATTGGTAGAATTCGGCAGCGTCATGCGACGGC / GCCGTCGCATGACGCTGCCGAATTCTACCACGCGATTCATACCTGTCGTGCCAGCTGCTTTGCCCACCTGCAGGTTCACCTCGTCCCTGGC [Bubble]”, the binding result with NSMF WT was “no binding”.
Turning to “TATTCATTGTTTTACCTATTGTACCTTATTCTTAATTCATTTTACTAATCATTTACGAGT [60-nt ssDNA]”, the binding result in data set [1] is on record as “binds”; in data set [2] (two shifted bands), “binds”; in data set [3] (+NSMF, lowest-mobility band lost), “binds more weakly”.
On to “TATTCATTGTTTTACCTATTGTACCTTATTCTTAATTCATTTTACTAATCATTTACGAGT [Biotinylated 60-nt ssDNA]”, for which, in data set [4] (two RPA per DNA), the binding result is listed as “binds more weakly”.
Regarding TTTTTTTTTTTTTT [14-nt ssDNA (dT14)], the binding result is given as “binds” in data set [5]; “binds” in data set [1]; “no binding” in data set [3] (+NSMF, RPA completely released).
For “TTTTTTTTTTTTTT [Biotinylated 14-nt ssDNA]”, the binding result in data set [6] (+NSMF, almost all puncta lost) is given as “no binding”; in data set [6] (+NSMF-ΔD2, not detached), “binds”.
Consider “TTTTTTTTTTTTTTTTTTTTTTTTTTTTTT [30-nt ssDNA (dT30)]”, for which the binding result in data set [1] was “binds”; in data set [7], “binds more weakly”; in data set [2] (one shifted band) it was “binds”; in data set [3] (150 nM RPA +NSMF, lowest-mobility band lost) it was “binds more weakly”.
For the sequence “TTTTTTTTTTTTTTTTTTTTTTTTTTTTTT [Biotinylated 30-nt ssDNA]”, the binding result in data set [4] (one RPA per DNA) was “binds more weakly”.
